Results are given in words; binding and its absence hold for the method and conditions named. Binding seen in cells or lysates may run through a third protein. Some binding calls cover weakened binding; strength is not graded here.
How the values were obtained:
[1] = biological target: transcriptional co-activator with PDZ-binding motif (TAZ) (human (endogenous in AGS and GA0518)) (UniProt Q9GZV5); assay: co-IP; endogenous proteins in AGS and GA0518 cell lysates; precipitated with an anti-TAZ antibody overnight at 4°C, Protein A/G magnetic beads, Western blot
[2] = biological target: transcriptional co-activator with PDZ-binding motif (TAZ) (human (endogenous in AGS and GA0518)) (UniProt Q9GZV5); assay: co-IP; endogenous proteins in GA0518 cell lysates, control against YAP1 knockout (LentiCRISPR/Cas9) or YAP1 ASO treatment; precipitating antibody not stated for this experiment
[3] = biological target: Yes-associated protein 1 (YAP1) (human (endogenous in AGS and GA0518)), P46937; assay: co-IP; endogenous proteins in AGS and GA0518 cell lysates; precipitated with an anti-YAP1 antibody overnight at 4°C, Protein A/G magnetic beads, Western blot; conditions: remark: other sources report otherwise

Chains of the proteins cited; added tags and fusions are not shown. Lines headed by an entry give the natural chain unless they say otherwise; changes in a name come on top.
UniProt Q9GZV5: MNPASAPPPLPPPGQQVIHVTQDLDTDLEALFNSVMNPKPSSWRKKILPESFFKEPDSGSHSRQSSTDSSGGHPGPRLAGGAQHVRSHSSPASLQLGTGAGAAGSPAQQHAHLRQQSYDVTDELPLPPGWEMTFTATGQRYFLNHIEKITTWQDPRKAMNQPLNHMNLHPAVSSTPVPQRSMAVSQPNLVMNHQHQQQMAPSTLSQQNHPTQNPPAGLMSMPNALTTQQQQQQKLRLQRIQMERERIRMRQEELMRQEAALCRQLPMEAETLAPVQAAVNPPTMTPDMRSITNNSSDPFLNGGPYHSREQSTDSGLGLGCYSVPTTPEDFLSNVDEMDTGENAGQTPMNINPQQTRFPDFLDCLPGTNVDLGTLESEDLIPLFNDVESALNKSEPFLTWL
UniProt Q15562: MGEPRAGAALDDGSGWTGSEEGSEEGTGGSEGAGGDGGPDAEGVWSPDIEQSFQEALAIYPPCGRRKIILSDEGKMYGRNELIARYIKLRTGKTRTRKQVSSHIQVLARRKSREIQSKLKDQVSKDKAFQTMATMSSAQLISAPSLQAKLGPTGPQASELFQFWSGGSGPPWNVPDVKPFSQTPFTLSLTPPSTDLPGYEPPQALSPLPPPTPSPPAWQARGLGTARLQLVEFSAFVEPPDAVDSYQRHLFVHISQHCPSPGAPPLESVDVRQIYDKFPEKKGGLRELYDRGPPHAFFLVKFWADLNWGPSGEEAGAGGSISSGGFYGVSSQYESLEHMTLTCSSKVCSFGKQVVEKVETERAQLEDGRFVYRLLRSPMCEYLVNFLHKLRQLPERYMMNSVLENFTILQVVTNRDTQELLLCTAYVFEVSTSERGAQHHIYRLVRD
UniProt P05412: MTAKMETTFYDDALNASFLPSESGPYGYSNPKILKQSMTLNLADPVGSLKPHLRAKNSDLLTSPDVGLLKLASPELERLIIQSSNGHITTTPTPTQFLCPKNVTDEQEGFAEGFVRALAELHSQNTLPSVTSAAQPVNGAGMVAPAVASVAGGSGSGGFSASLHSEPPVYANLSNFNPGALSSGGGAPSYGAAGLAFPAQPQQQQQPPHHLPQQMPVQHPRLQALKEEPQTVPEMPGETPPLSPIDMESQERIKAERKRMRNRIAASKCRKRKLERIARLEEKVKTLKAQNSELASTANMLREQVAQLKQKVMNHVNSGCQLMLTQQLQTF

Row | Molecule | binding [1] | also measured
1 | TEA domain transcription factor 2 (TEAD2) (from UniProt Q15562 1-447) | binds | 
2 | Yes-associated protein 1 (YAP1) (from UniProt P46937 1-504) (other; other documents disagree on this pair) | binds | 
3 | AP-1 heterodimer (c-JUN and FOSB) (from UniProt P05412 1-331; P53539 1-338) (complex) |  | binding [2]: binds
4 | TEA domain transcription factor 3 (TEAD3), Q99594 1-435 (protein) MASNSWNASSSPGEAREDGPEGLDKGLDNDAEGVWSPDIEQSFQEALAIYPPCGRRKIILSDEGKMYGRNELIARYIKLRTGKTRTRKQVSSHIQVLARKKVREYQVGIKAMNLDQVSKDKALQSMASMSSAQIVSASVLQNKFSPPSPLPQAVFSTSSRFWSSPPLLGQQPGPSQDIKPFAQPAYPIQPPLPPTLSSYEPLAPLPSAAASVPVWQDRTIASSRLRLLEYSAFMEVQRDPDTYSKHLFVHIGQTNPAFSDPPLEAVDVRQIYDKFPEKKGGLKELYEKGPPNAFFLVKFWADLNSTIQEGPGAFYGVSSQYSSADSMTISVSTKVCSFGKQVVEKVETEYARLENGRFVYRIHRSPMCEYMINFIHKLKHLPEKYMMNSVLENFTILQVVTSRDSQETLLVIAFVFEVSTSEHGAQHHVYKLVKD |  | binding [3]: binds

From article PMC13334769
